At least one structure is not confirmed: it was looked up by name or label, or the drawing left a doubt.
Experiments:
[1] = system: unilateral vestibular neurectomy (UVN) cats; assay: Horizontal spontaneous nystagmus recovery after unilateral vestibular neurectomy; type: in vivo, cat
[2] = system: UVN adult female rats; assay: Posturo-locomotor behavior tests (velocity, distance, immobility, meander) in the rat unilateral vestibular neurectomy model; type: in vivo; settings: apamin 0.6 mg/kg i.p.
Description: A unilateral vestibular neurectomy (UVN) was performed on adult female rats in order to induce unilateral vestibulopathy. Then, the small conductance calcium activated K^+ channels antagonists apamin, AG525E1 and NS8593 were administered intraperitoneally to UVN animals in double blind conditions once a day for 4 days, i.e. during the acute phase of the syndrome. It was then assessed the severity of posturo-locomotor deficits using appropriate behavior tests for 10 days after UVN. Subjective scoring of the vestibular syndrome was carried out according to the method previously published (Péricat et al. 2017; Tighilet et al. 2017). According to this method, the severity of the vestibular syndrome of the injured animals was evaluated by subjectively assigning a score to various vestibular signs (VS) observed: —spontaneous or evoked rotation of the animal on its lateral axis (tumbling): score from 0 to 3 (0: absence of VS; 1: slight vestibular sign; 2: marked VS; 3 maximum VS)—spontaneous rotation or evoked from the animal according to a vertical axis (circling): score from 0 to 2 (0: absence of VS; 1: marked VS; 2 maximum VS)—repeated vertical movements of the head (bobbing): score from 0 to 1 (0: absence of VS; 1: presence of VS)—inclination of the head on the side of the lesion: score from 0 to 3 (see below)—inability to stand up to the wall: score from 0 to 1 (see below)—difficulty moving forward and/or alteration of the locomotor pattern: score from 0 to 4 (0: absence of VS; 1: slight vestibular sign; 2: evident VS; 3:marked VS; 4 maximum VS)—rotation of the body of the animal when undergoing vertical traction fast: score from 0 to 3 (see below). A total score was obtained for each animal by adding these different scores.

[3] = system: UVN adult female rats; assay: Subjective scoring of vestibular syndrome severity in the rat unilateral vestibular neurectomy model; type: in vivo; settings: apamin 0.6 mg/kg i.p. once a day for 4 days, statistically significant at day 7 (FIG. 6A)
Description: A unilateral vestibular neurectomy (UVN) was performed on adult female rats in order to induce unilateral vestibulopathy. Then, the small conductance calcium activated K^+ channels antagonists apamin, AG525E1 and NS8593 were administered intraperitoneally to UVN animals in double blind conditions once a day for 4 days, i.e. during the acute phase of the syndrome. It was then assessed the severity of posturo-locomotor deficits using appropriate behavior tests for 10 days after UVN. Subjective scoring of the vestibular syndrome was carried out according to the method previously published (Péricat et al. 2017; Tighilet et al. 2017). […]

[4] = system: unilateral vestibular neurectomy (UVN) cats; assay: Posture function recovery (support surface) after unilateral vestibular neurectomy; type: in vivo, cat

With `CC(C)C[C@@H]1NC(=O)[C@H](C)NC(=O)[C@H]([C@@H](C)O)NC(=O)[C@H](CCC(=O)O)NC(=O)[C@@H]2CCCN2C(=O)[C@H](C)NC(=O)[C@H](CCCCN)NC(=O)[C@@H]2CSSC[C@@H](C(=O)N[C@@H](CCC(N)=O)C(=O)N[C@@H](CCC(N)=O)C(=O)N[C@@H](Cc3cnc[nH]3)C(N)=O)NC(=O)[C@H](CCCNC(=N)N)NC(=O)[C@H](CCCNC(=N)N)NC(=O)[C@H](C)NC(=O)[C@H](CSSC[C@H](N)C(=O)N[C@@H](CC(N)=O)C(=O)N2)NC1=O` [apamin] the “Day at which number of eye beats reached control values” ([1]; apamin 0.3 mg/kg i.p., UVN-NaCl day 8, p<0.0001) was 5 days, the “Frequency of the spontaneous nystagmus” value ([1]; first post-UVN day, apamin 0.3 mg/kg i.p., UVN-NaCl 15 beats/10 sec) was 11 beats/10 sec and the “Effect on horizontal spontaneous nystagmus” value ([1]; from the first administration of apamin) was “significant reduction of the horizontal spontaneous nystagmus”. The Immobility time ([2]; day 1 after neurectomy (FIG. 6D)) was “reduced time of immobility”, the “Animal path shape (normalized meander), locomotion pattern” value ([2]; day 1 after neurectomy (FIG. 6E)) was “improvement of locomotion pattern” and the Animal velocity ([2]; day 7 and day 10 (FIG. 6B)) was “significant increase of animal velocity”. The Total distance covered ([2]; day 7 and day 10 (FIG. 6C)) was “significant increase”, the Vestibular syndrome severity [3] was “faster attenuation of vestibular syndrome” and the “Time after first administration from which reductions of oculomotor and posturolocomotor deficits are noticed” value ([4]; apamin 0.3 mg/kg i.p.) was 24 h. For the same compound, the “Return of support surface to preoperative control values” ([4]; apamin 0.3 mg/kg i.p. once a day for three post-UVN days, UVN-NaCl group 42 days, p<0.0001) was 26 days.

Reference: patent US20210038682A1, “MODULATORS OF SMALL CONDUCTANCE CALCIUM ACTIVATED K+ CHANNELS AND PHARMACEUTICAL COMPOSITIONS FOR USE IN THE TREATMENT OF LESIONAL VESTIBULAR DISORDERS” (priority 2018, published 2021)
